Results published in patent US3973021A, “2-[2-(5-Nitro-2-furyl)vinyl]-4-(phydroxyanilino)quinazoline as a bactericide” (Diamond Shamrock Corporation, priority 1975, dated 1976).
At least one compound was matched to its structure with a doubt left.

How the values were obtained:
[1] = tested on: S. faecalis, E. rhusiopathiae, B. bronchiseptica, S. agalactiae, Streptococcus group E and Vibrio coli; assay: Bactericide test, comparison with chlortetracycline; assay type: cell-based; settings: Table A
Text: Test formulations were examined for bactericidal and/or bacteriostatic activity against the test organisms shown in Tables A and B. These organisms were chosen as being representative of commercially important pathogens affecting animal agriculture. The antibiotic chlortetracycline was chosen as a positive control, since it has a broad spectrum of activity against a large number of organisms, and its activity can be used for comparative purposes.
Basic test formulations of the product of Examples I, II, III, and of chlortetracycline were prepared by dissolving 16 mg (0.016 g) in 2.0 ml of stock emulsifier solution (0.25% Triton X-155 in acetone by volume) and making each solution up to 50 ml with deionized water. The concentration of the test compound in the basic formulation was 320 ppm. Lower concentrations of the test compound were obtained by diluting the basic formulation with a 4% solution of the stock emulsifier in deionized water so that each dilution in the series differed only in test compound content.
Nutrient-tryptic soy agar (NTA) consisting of 2.0% Difco Bactoagar 0.8% nutrient broth (Difco), and 0.5% tryptic soy broth (Difco) was prepared and sterilized by autoclaving. A 2 ml aliquot of each test formulation was added to 8 ml of molten NTA. This mixture was then plated in a sterile polystyrene petri dish (100 × 15 mm). […]

[2] = Example XII: 4 week chick feeding test, first set (Table VI); assay type: in vivo, broiler cross chicks
Text: This example compares growth promotion activity of the product of Example I with other growth promotants at a concentration of 25 g/T in the Basal Ration described in Example VII. The other growth promotants include the product described in Example I of U.S. Pat. No. 3,542,784 -- Burch and quinoxaline-1,4-dioxide. Day old broiler cross chicks were weight equalized into groups of 8 chicks each, and four replicates of 8 chicks each were fed the experimental rations over a 4 week period.
The growth promotion tests described in Example X were repeated with the additional testing the products of Examples II and III.

[3] = Example XII: 4 week chick feeding test, repeat with five replicates (Table VII); assay type: in vivo, broiler cross chicks

O=[N+]([O-])c1ccc(C=Cc2nc(Nc3ccccc3O)c3ccccc3n2)o1 [Example III, 2-[2-(5-nitro-furyl)vinyl]-4-(o-hydroxyanilino)quinazoline]
effectiveness relative to chlortetracycline (in words) [1]: considerably more effective
growth rate / feed efficiency response (in words) [2]: moderate improvements
growth rate / feed efficiency response (in words) [3]: more substantial response
